# Source: the M2OR odorant receptor database
# Chains of the proteins cited; added tags and fusions are not shown. A change or cut given only in a name is not applied to a line headed by its entry. A line that says so, or that is headed by a name, gives the form on record, which may keep a tag or linker.
# UniProt Q6IFN5: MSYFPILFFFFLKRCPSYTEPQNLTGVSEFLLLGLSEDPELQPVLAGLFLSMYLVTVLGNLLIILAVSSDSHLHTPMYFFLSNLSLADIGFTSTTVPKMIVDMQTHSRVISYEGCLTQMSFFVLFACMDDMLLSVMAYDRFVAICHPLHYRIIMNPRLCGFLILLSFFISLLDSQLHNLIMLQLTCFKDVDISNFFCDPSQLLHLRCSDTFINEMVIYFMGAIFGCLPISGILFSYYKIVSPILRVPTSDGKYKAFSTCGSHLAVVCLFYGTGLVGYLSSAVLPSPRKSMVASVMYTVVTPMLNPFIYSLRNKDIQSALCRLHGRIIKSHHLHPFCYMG
# OR8B4, as listed by the source: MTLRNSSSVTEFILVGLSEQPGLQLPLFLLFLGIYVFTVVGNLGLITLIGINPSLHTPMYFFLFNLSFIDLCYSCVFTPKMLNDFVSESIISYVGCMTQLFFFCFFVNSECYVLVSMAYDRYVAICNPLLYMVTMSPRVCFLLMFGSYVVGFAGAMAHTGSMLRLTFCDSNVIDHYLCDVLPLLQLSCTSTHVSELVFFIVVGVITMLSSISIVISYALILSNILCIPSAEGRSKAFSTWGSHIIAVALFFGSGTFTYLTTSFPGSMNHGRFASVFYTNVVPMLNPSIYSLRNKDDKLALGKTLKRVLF
# OR7G2, as listed by the source: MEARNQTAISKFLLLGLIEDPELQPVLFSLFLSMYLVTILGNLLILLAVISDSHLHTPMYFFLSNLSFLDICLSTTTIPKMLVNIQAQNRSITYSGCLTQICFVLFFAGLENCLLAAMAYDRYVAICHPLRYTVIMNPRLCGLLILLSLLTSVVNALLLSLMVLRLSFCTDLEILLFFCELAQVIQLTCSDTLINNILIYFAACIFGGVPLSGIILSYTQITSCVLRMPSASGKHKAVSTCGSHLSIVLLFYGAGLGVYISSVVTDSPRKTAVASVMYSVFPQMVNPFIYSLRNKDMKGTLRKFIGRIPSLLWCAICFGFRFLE
# OR7D4, as listed by the source: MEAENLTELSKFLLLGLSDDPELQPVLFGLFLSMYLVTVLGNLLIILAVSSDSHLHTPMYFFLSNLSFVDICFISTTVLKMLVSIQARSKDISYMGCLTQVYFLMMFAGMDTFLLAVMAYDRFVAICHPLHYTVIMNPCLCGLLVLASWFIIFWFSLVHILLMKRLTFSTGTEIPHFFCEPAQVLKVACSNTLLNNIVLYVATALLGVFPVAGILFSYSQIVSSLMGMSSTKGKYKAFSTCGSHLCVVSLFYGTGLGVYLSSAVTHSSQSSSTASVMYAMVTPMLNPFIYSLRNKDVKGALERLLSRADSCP
# OR8B3, as listed by the source: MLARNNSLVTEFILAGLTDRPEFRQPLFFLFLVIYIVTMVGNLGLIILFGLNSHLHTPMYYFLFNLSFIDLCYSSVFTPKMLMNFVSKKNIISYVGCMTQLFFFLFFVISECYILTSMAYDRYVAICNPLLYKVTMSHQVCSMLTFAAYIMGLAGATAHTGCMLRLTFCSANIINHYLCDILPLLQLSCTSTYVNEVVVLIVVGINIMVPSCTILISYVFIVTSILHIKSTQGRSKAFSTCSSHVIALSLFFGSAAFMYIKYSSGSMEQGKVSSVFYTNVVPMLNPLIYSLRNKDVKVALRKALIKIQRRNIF
# Numbering of substitutions follows the chain as printed. This is a selection; strong and weak results do not stand in their true shares. Calls are pooled over several reports, among them a noisy single-well screen. Some of the results follow.
# Columns and labels:
# Conditions in all cases: stereoisomer not certain
# OR7D4 [1] = tested on: T1, OR7D4
# T1 sequence (whole entry): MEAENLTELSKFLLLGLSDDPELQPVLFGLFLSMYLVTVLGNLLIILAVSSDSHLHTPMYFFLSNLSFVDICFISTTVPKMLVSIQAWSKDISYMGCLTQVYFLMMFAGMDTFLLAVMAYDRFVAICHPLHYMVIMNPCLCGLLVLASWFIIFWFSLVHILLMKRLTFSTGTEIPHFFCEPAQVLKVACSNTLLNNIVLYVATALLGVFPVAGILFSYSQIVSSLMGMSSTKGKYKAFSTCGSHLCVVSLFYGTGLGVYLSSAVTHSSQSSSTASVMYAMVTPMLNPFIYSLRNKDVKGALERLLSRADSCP
# Method in brief: (§1)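 Each receptor–molecule pair is labelled responsive or non-responsive (inactive) according to whether the original authors judged the measured signal statistically different from baseline. The data were taken from the main text and supplementary material of published papers and checked for typos and inconsistencies. Assay methods differed by source, with transient luciferase assays in mammalian cell lines being common.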
# OR7D4 [2] = tested on: OR7D4; remark: listed apart in the source
# Method in brief: as §1
# OR7E24 (Homo sapiens) = OR7E24 (Homo sapiens) (UniProt Q6IFN5)
# Method in brief: as §1
# OR7G1 (Homo sapiens) = target: T2, OR7G1 (Homo sapiens) (UniProt Q8NGA0)
# T2 sequence (whole entry): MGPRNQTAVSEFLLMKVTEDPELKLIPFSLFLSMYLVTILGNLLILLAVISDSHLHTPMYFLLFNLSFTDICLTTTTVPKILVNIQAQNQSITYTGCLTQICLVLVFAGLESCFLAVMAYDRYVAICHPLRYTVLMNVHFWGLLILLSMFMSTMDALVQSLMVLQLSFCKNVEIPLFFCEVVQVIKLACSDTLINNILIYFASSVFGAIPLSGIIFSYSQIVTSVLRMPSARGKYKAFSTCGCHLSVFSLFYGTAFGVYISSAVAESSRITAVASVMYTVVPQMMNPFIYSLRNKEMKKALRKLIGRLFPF
# Method in brief: as §1
# OR7G2 (Homo sapiens) = target: T3, OR7G2 (Homo sapiens) (UniProt Q8NG99)
# T3 sequence (whole entry): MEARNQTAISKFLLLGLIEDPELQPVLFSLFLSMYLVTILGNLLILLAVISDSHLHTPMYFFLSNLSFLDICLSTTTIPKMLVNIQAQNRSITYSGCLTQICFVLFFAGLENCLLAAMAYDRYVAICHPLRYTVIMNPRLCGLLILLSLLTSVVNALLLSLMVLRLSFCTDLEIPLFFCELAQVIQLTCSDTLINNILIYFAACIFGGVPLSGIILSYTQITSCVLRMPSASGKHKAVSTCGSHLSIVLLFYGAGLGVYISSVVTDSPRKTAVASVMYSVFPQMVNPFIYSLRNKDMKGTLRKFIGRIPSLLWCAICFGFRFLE
# Method in brief: as §1
# OR7G2 [3] = tested on: T4, OR7G2
# T4 sequence (whole entry): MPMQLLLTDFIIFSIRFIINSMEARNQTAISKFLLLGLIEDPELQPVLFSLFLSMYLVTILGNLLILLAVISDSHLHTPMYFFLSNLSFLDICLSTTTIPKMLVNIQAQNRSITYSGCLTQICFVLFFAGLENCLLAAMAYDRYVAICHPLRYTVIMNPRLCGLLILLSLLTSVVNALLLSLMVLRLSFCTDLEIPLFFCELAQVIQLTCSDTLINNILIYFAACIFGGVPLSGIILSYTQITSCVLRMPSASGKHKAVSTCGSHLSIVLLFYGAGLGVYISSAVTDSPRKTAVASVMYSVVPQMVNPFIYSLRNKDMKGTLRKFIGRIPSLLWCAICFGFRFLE
# Method in brief: as §1
# OR7G3 (Homo sapiens) = target: T5, OR7G3 (Homo sapiens) (UniProt Q8NG95)
# T5 sequence (whole entry): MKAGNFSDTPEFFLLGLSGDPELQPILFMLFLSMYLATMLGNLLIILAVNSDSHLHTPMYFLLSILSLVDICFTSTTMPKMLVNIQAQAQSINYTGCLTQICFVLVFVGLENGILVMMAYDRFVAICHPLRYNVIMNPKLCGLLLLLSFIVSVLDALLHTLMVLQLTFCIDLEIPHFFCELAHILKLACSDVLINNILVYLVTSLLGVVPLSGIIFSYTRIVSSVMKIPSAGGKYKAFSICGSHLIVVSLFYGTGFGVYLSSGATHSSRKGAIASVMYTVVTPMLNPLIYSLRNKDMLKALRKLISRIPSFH
# Method in brief: as §1
# OR8A1 = tested on: T6, OR8A1
# T6 sequence (whole entry): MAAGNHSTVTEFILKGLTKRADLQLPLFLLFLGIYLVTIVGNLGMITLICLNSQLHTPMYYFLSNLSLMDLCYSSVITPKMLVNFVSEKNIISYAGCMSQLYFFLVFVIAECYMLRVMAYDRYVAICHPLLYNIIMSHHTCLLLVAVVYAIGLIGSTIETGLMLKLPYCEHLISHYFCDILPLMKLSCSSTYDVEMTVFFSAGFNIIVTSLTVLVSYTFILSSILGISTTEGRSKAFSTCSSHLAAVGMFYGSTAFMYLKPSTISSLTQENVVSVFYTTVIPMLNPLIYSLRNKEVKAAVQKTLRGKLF
# Method in brief: as §1
# OR8B12 (Homo sapiens) = target: T7, OR8B12 (Homo sapiens) (UniProt Q8NGG6)
# T7 sequence (whole entry): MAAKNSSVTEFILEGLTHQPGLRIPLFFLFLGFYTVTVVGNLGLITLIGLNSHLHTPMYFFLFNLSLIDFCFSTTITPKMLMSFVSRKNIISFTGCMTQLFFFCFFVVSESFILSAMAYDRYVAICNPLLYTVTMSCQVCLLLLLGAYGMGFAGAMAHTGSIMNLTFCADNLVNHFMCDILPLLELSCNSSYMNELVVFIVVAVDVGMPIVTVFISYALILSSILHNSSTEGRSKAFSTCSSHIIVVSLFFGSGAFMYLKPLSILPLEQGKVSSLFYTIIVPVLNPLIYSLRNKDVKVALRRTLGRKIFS
# Method in brief: as §1
# OR8B2 (Homo sapiens) = target: T8, OR8B2 (Homo sapiens) (UniProt Q96RD0)
# T8 sequence (whole entry): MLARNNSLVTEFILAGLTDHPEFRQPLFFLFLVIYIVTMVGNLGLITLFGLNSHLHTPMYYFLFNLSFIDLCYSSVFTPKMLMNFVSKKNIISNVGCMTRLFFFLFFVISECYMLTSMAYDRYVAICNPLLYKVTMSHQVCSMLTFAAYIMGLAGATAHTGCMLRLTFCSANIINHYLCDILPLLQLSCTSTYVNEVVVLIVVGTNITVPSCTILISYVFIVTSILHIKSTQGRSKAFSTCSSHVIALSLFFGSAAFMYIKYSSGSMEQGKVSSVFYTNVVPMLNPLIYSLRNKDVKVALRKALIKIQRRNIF
# Method in brief: as §1
# OR8B3 = tested on: T9, OR8B3
# T9 sequence (whole entry): T8 sequence (whole entry) with H20R, T47I, N94Y, R100Q, M114I, T205I, T208M
# Method in brief: as §1
# OR8B4 [4] = tested on: T10, OR8B4
# T10 sequence (whole entry): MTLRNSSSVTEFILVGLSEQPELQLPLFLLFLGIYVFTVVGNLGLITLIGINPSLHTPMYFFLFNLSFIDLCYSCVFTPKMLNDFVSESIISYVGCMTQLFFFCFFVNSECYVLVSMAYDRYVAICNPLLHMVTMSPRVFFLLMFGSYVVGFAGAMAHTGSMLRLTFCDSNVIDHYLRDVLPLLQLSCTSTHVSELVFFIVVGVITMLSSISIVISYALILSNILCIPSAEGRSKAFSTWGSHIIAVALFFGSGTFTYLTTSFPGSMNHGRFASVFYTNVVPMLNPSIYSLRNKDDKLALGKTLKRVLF
# Method in brief: as §1
# OR8B4 [5] = tested on: T11, OR8B4; remark: listed apart in the source
# T11 sequence (whole entry): T10 sequence (whole entry) with E22G, H131Y, F140C, R178C
# Method in brief: as §1
# OR8B8 (Homo sapiens) = target: T12, OR8B8 (Homo sapiens) (UniProt Q15620)
# T12 sequence (whole entry): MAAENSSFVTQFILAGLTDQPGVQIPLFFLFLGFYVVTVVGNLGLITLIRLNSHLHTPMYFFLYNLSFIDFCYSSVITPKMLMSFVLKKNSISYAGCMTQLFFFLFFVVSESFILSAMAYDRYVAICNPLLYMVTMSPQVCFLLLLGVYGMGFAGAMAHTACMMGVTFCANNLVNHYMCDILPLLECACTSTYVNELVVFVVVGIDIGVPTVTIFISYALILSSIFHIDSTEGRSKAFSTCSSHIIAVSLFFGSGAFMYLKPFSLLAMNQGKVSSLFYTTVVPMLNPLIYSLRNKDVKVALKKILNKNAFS
# Method in brief: as §1
# OR8B8 = tested on: T13, OR8B8
# T13 sequence (whole entry): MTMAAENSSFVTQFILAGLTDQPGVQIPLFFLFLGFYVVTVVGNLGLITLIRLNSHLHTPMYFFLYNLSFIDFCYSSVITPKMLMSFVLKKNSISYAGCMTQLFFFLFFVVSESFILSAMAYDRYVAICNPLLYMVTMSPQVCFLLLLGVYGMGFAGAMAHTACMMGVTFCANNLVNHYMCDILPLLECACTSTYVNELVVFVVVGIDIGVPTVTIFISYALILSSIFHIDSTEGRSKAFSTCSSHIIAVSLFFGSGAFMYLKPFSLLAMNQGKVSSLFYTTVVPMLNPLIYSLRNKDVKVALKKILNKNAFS
# Method in brief: as §1
# OR7G2 [6] = tested on: OR7G2; remark: listed apart in the source
# Method in brief: as §1
# OR7G2 [7] = tested on: OR7G2; remark: listed apart in the source
# Method in brief: as §1
# OR7G2 [8] = tested on: OR7G2; remark: listed apart in the source
# Method in brief: as §1
# 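Also: active if original authors judged signal statistically different from baseline.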
Compound,odorant receptor agonist call (OR7D4 [1]),odorant receptor agonist call (OR7D4 [2]),odorant receptor agonist call (OR7E24 (Homo sapiens)),odorant receptor agonist call (OR7G1 (Homo sapiens)),odorant receptor agonist call (OR7G2 (Homo sapiens)),odorant receptor agonist call (OR7G2 [3]),odorant receptor agonist call (OR7G3 (Homo sapiens)),odorant receptor agonist call (OR8A1),odorant receptor agonist call (OR8B12 (Homo sapiens)),odorant receptor agonist call (OR8B2 (Homo sapiens)),odorant receptor agonist call (OR8B3),odorant receptor agonist call (OR8B4 [4]),odorant receptor agonist call (OR8B4 [5]),odorant receptor agonist call (OR8B8 (Homo sapiens)),odorant receptor agonist call (OR8B8),odorant receptor agonist call (OR7G2 [6]),odorant receptor agonist call (OR7G2 [7]),odorant receptor agonist call (OR7G2 [8])
CCCCCCCCC=O,inactive,,,,,,,,,,,,,,,,,
CC12C=CCC1C1CCC3=CC(=O)CCC3(C)C1CC2 (configuration not stated),inactive,inactive,inactive,inactive,inactive,inactive,inactive,inactive,inactive,inactive,inactive,inactive,inactive,inactive,inactive,,,
COc1cc(C=O)ccc1O,inactive,,,inactive,inactive,inactive,inactive,inactive,inactive,inactive,inactive,inactive,inactive,inactive,inactive,,,
C=CCc1ccc(OC)c(OC)c1,inactive,,,inactive,inactive,inactive,inactive,inactive,inactive,active,inactive,inactive,inactive,inactive,inactive,,,
COC(=O)c1ccccc1O,inactive,,,inactive,inactive,inactive,inactive,inactive,inactive,inactive,inactive,inactive,inactive,inactive,inactive,,,
CCC1(O)C2(C)CCC(C2)C1(C)C (configuration not stated),inactive,,,inactive,inactive,inactive,inactive,inactive,inactive,inactive,inactive,inactive,inactive,inactive,inactive,,,
c1cnccn1,inactive,,,inactive,inactive,inactive,inactive,inactive,inactive,inactive,inactive,inactive,inactive,inactive,inactive,,,
CCCCCCOC(=O)CCC,inactive,,,inactive,inactive,inactive,inactive,inactive,inactive,inactive,inactive,inactive,inactive,inactive,inactive,,,
CCCCCCCCCC=O,inactive,,,inactive,inactive,inactive,inactive,inactive,inactive,inactive,inactive,inactive,inactive,inactive,inactive,,,
O=C1CCCCCCCCCCCC(=O)OCCO1,inactive,,,inactive,inactive,inactive,inactive,inactive,inactive,inactive,inactive,inactive,inactive,inactive,inactive,,,
CCCCCCCOC(C)=O,inactive,,,inactive,inactive,inactive,inactive,inactive,inactive,inactive,inactive,inactive,inactive,inactive,inactive,,,
CCCC(=O)O,inactive,,,inactive,inactive,inactive,inactive,inactive,inactive,inactive,inactive,inactive,inactive,inactive,inactive,inactive,inactive,active
C=CCc1ccc(OC(C)=O)c(OC)c1,inactive,,,inactive,inactive,inactive,active,inactive,active,active,active,inactive,inactive,inactive,inactive,,,
